The list shows a part of the results. Single values are uncertain, as repeats are few or missing.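 Imaging used 1,536-well plates; nuclei positive for cleaved PARP by antibody were divided by total DNA-stained nuclei to yield the apoptosis fraction. Doses for screening kept most cells viable, and cell lines differ markedly in resting and induced cleaved-PARP levels.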
Experiments:
Experiment in all cases: cleaved PARP positive nuclei fraction relative to DMSO control; melanoma cells; higher = more apoptosis
Settings in all cases: library dose: low library concentration; 72 h
501Mel = system: 501Mel
A101D = system: A101D
A2058 = system: A2058
A375 = system: A375
C32 = system: C32
CBRC008 = system: CBRC008 (line from a melanoma biopsy)
CBRC014 = system: CBRC014 (line from a melanoma biopsy)
CBRC016 = system: CBRC016 (line from a melanoma biopsy)
CBRC017 = system: CBRC017 (line from a melanoma biopsy)
CBRC034 = system: CBRC034 (line from a melanoma biopsy)
COLO792 = system: COLO792
COLO800 = system: COLO800
COLO829 = system: COLO829
G361 = system: G361
IPC-298 = system: IPC-298
IST-MEL1 = system: IST-MEL1
LB2518-MEL = system: LB2518-MEL
LOXIMVI = system: LOXIMVI
MEL-HO = system: MEL-HO

Row | Structure (SMILES) | cleaved PARP positive nuclei fraction (501Mel) | cleaved PARP positive nuclei fraction (A101D) | cleaved PARP positive nuclei fraction (A2058) | cleaved PARP positive nuclei fraction (A375) | cleaved PARP positive nuclei fraction (C32) | cleaved PARP positive nuclei fraction (CBRC008) | cleaved PARP positive nuclei fraction (CBRC014) | cleaved PARP positive nuclei fraction (CBRC016) | cleaved PARP positive nuclei fraction (CBRC017) | cleaved PARP positive nuclei fraction (CBRC034) | cleaved PARP positive nuclei fraction (COLO792) | cleaved PARP positive nuclei fraction (COLO800) | cleaved PARP positive nuclei fraction (COLO829) | cleaved PARP positive nuclei fraction (G361) | cleaved PARP positive nuclei fraction (IPC-298) | cleaved PARP positive nuclei fraction (IST-MEL1) | cleaved PARP positive nuclei fraction (LB2518-MEL) | cleaved PARP positive nuclei fraction (LOXIMVI) | cleaved PARP positive nuclei fraction (MEL-HO)
1 | CCCS(=O)(=O)Nc1ccc(F)c(C(=O)c2c[nH]c3ncc(Cl)cc23)c1F + Clc1ccc(Nc2nnc(Cc3ccncc3)c3ccccc23)cc1 [vatalanib] (first compound 0.08 µM, partner dose 2 µM) | 50.3% | 105% | 39.9% | 267% | 88.1% | 197% | 134% | 145% | 114% | 143% | 37.7% | 93.3% | 76.5% | 61.7% | 96.7% | 123% | 92.2% | 112% | 264%
2 | CO[C@H]1C[C@@H]2CC[C@@H](C)[C@@](O)(O2)C(=O)C(=O)N2CCCC[C@H]2C(=O)O[C@H]([C@H](C)C[C@@H]2CC[C@@H](OCCO)[C@H](OC)C2)CC(=O)[C@H](C)/C=C(\C)[C@@H](O)[C@@H](OC)C(=O)[C@H](C)C[C@H](C)/C=C/C=C/C=C/1C [everolimus] + CS(=O)(=O)CCNCc1ccc(-c2ccc3ncnc(Nc4ccc(OCc5cccc(F)c5)c(Cl)c4)c3c2)o1 [lapatinib] (first compound 0.02 µM, partner dose 0.8 µM) | 296% | 33.3% | 338% | 701% | 75.5% | 259% | 98.2% | 102% | 110% | 98.2% | 137% | 201% | 171% | 182% | 333% | 305% | 140% | 156% | 287%
3 | CCCS(=O)(=O)Nc1ccc(F)c(C(=O)c2c[nH]c3ncc(Cl)cc23)c1F + C=CCNC1=C2C[C@@H](C)C[C@H](OC)[C@H](O)[C@@H](C)/C=C(\C)[C@H](OC(N)=O)[C@@H](OC)/C=C\C=C(/C)C(=O)NC(=CC1=O)C2=O [Tanespimycin] (first compound 0.08 µM, partner dose 0.002 µM) | 464% | 103% | 86.5% | 85.9% | 264% | 91.1% | 124% | 96.4% | 85.4% | 27.7% | 78.1% | 221% | 101% | 124% | 115% | 266% | 201% | 50.5% | 193%
4 | CO[C@H]1C[C@@H]2CC[C@@H](C)[C@@](O)(O2)C(=O)C(=O)N2CCCC[C@H]2C(=O)O[C@H]([C@H](C)C[C@@H]2CC[C@@H](OCCO)[C@H](OC)C2)CC(=O)[C@H](C)/C=C(\C)[C@@H](O)[C@@H](OC)C(=O)[C@H](C)C[C@H](C)/C=C/C=C/C=C/1C [everolimus] + Nc1ncn([C@H]2C[C@H](O)[C@@H](CO)O2)c(=O)n1 [decitabine] (first compound 0.02 µM, partner dose 0.1 µM) | 232% | 98.4% | 82.5% | 477% | 135% | 124% | 124% | 92.2% | 108% | 38.9% | 180% | 140% | 113% | 185% | 101% | 326% | 66.5% | 118% | 693%
5 | C=C(c1ccc(C(=O)O)cc1)c1cc2c(cc1C)C(C)(C)CCC2(C)C [Bexarotene] + Cn1c(Nc2ccc(C(F)(F)F)cc2)nc2cc(Oc3ccnc(-c4ncc(C(F)(F)F)[nH]4)c3)ccc21 [CHIR265] (first compound 2 µM, partner dose 0.08 µM) | 164% | 132% | 98.3% | 64.6% | 82.4% | 73.7% | 105% | 283% | 190% | 47.2% | 199% | 22% | 70.3% | 133% | 120% | 48.2% | 68% | 54% | 92.2%
6 | Nc1nc(F)nc2c1ncn2[C@@H]1O[C@H](CO)[C@@H](O)[C@@H]1O [fludarabine] + OCc1c[nH]c2ccccc12 [Indole-3-carbinol] (first compound 0.2 µM, partner dose 0.8 µM) | 5050% | 158% | 87.1% | 5310% | 222% | 163% | 101% | 89.3% | 138% | 101% | 53.3% | 117% | 61.2% | 230% | 48.6% | 64.7% | 60.9% | 129% | 90.3%
7 | CO[C@H]1C[C@@H]2CC[C@@H](C)[C@@](O)(O2)C(=O)C(=O)N2CCCC[C@H]2C(=O)O[C@H]([C@H](C)C[C@@H]2CC[C@@H](OCCO)[C@H](OC)C2)CC(=O)[C@H](C)/C=C(\C)[C@@H](O)[C@@H](OC)C(=O)[C@H](C)C[C@H](C)/C=C/C=C/C=C/1C [everolimus] + CCCS(=O)(=O)Nc1ccc(F)c(C(=O)c2c[nH]c3ncc(Cl)cc23)c1F [PLX4720] (first compound 0.02 µM, partner dose 0.08 µM) | 667% | 118% | 151% | 614% | 89.4% | 245% | 135% | 225% | 126% | 52.9% | 184% | 134% | 142% | 205% | 174% | 323% | 263% | 148% | 40.2%
8 | CC(C)C[C@H](NC(=O)[C@H](Cc1ccccc1)NC(=O)c1cnccn1)B(O)O [Bortezomib] + COc1ccc(Cl)c(Nc2nc3ccccc3nc2NS(=O)(=O)c2cccc(NC(=O)C(C)(C)N)c2)c1 [XL147] (first compound 0.001 µM, partner dose 0.8 µM) | 6610% | 313% | 55% | 119% | 90.4% | 953% | 233% | 465% | 242% | 828% | 130% | 144% | 292% | 2720% | 112% | 240% | 251% | 133% | 167%
9 | O=C(O)[C@@H]1[O][Sb](=[O])([O][Sb]2(=[O])[O][C@H]([C@H](O)CO)[C@H](O)[C@H](C(=O)O)[O]2)[O][C@H]([C@H](O)CO)[C@@H]1O (some centres undefined) [stibogluconate] + Cn1c(Nc2ccc(C(F)(F)F)cc2)nc2cc(Oc3ccnc(-c4ncc(C(F)(F)F)[nH]4)c3)ccc21 [CHIR265] (first compound 2 µM, partner dose 0.08 µM) | 374% | 41.9% | 182% | 202% | 90.2% | 77.7% | 92.2% | 87.5% | 114% | 33.5% | 188% | 180% | 64% | 196% | 263% | 134% | 169% | 36.5% | 271%
10 | O=C(O)c1ccc2c(c1)nc(Nc1cccc(Cl)c1)c1ccncc12 + Nc1ccn([C@@H]2O[C@H](CO)[C@@H](O)C2(F)F)c(=O)n1 [gemcitabine] (first compound 0.4 µM, partner dose 0.0004 µM) | 46.9% | 39.2% | 146% | 101% | 72.9% | 263% | 176% | 367% | 262% | 492% | 201% | 94.4% | 223% | 91.3% | 392% | 193% | 73.4% | 452% | 135%
11 | CNC(=O)c1cc(Oc2ccc(NC(=O)Nc3ccc(Cl)c(C(F)(F)F)c3)cc2)ccn1 [sorafenib] + Nc1nc(F)nc2c1ncn2[C@@H]1O[C@H](CO)[C@@H](O)[C@@H]1O [fludarabine] (first compound 0.4 µM, partner dose 0.2 µM) | 10700% | 134% | 121% | 2460% | 60.6% | 101% | 96.9% | 95.5% | 94.5% | 98.6% | 57.8% | 106% | 71.9% | 96.1% | 97.5% | 196% | 113% | 155% | 211%
12 | CC(C)C[C@H](NC(=O)[C@H](Cc1ccccc1)NC(=O)c1cnccn1)B(O)O [Bortezomib] + C[C@]1(c2nc3c(C(N)=O)cccc3[nH]2)CCCN1 [Veliparib] (first compound 0.001 µM, partner dose 1.4 µM) | 516% | 92.9% | 122% | 236% | 91.8% | 252% | 207% | 132% | 225% | 126% | 108% | 157% | 126% | 926% | 97.7% | 263% | 230% | 54.6% | 126%
13 | Cc1cc(Nc2cc(N3CCN(C)CC3)nc(/C=C/c3ccccc3)n2)n[nH]1 + C#Cc1cccc(Nc2ncnc3cc(OCCOC)c(OCCOC)cc23)c1 [erlotinib] (first compound 0.04 µM, partner dose 0.8 µM) | 97.1% | 158% | 284% | 288% | 90.4% | 191% | 91.5% | 140% | 148% | 144% | 123% | 149% | 106% | 77.2% | 126% | 172% | 130% | 110% | 357%
14 | CC(C)C[C@H](NC(=O)[C@H](Cc1ccccc1)NC(=O)c1cnccn1)B(O)O [Bortezomib] + CCCS(=O)(=O)Nc1ccc(F)c(C(=O)c2c[nH]c3ncc(Cl)cc23)c1F [PLX4720] (first compound 0.001 µM, partner dose 0.08 µM) | 211% | 863% | 101% | 253% | 84.7% | 1690% | 344% | 474% | 287% | 769% | 53.1% | 76.6% | 83.1% | 5370% | 77.8% | 73.7% | 859% | 90.8% | 121%
15 | Cc1cc(Nc2cc(N3CCN(C)CC3)nc(/C=C/c3ccccc3)n2)n[nH]1 + CCCS(=O)(=O)Nc1ccc(F)c(C(=O)c2c[nH]c3ncc(Cl)cc23)c1F [PLX4720] (first compound 0.04 µM, partner dose 0.08 µM) | 73.1% | 50.2% | 98.4% | 131% | 84.7% | 112% | 89.1% | 127% | 104% | 62.9% | 124% | 94.4% | 77.6% | 130% | 47.5% | 272% | 113% | 196% | 164%
16 | CC(C)C[C@H](NC(=O)[C@H](Cc1ccccc1)NC(=O)c1cnccn1)B(O)O [Bortezomib] + Cn1nnc2c(C(N)=O)ncn2c1=O [temozolomide] (first compound 0.001 µM, partner dose 2 µM) | 720% | 580% | 144% | 195% | 81.4% | 3440% | 875% | 893% | 4950% | 733% | 74.7% | 104% | 152% | 7110% | 182% | 102% | 1140% | 323% | 220%

Excerpt, entries 4 to 5
Row | Structure (SMILES) | cleaved PARP positive nuclei fraction (501Mel) | cleaved PARP positive nuclei fraction (A101D) | cleaved PARP positive nuclei fraction (A2058) | cleaved PARP positive nuclei fraction (A375) | cleaved PARP positive nuclei fraction (C32) | cleaved PARP positive nuclei fraction (CBRC008) | cleaved PARP positive nuclei fraction (CBRC014) | cleaved PARP positive nuclei fraction (CBRC016) | cleaved PARP positive nuclei fraction (CBRC017) | cleaved PARP positive nuclei fraction (CBRC034) | cleaved PARP positive nuclei fraction (COLO792) | cleaved PARP positive nuclei fraction (COLO800) | cleaved PARP positive nuclei fraction (COLO829) | cleaved PARP positive nuclei fraction (G361) | cleaved PARP positive nuclei fraction (IPC-298) | cleaved PARP positive nuclei fraction (IST-MEL1) | cleaved PARP positive nuclei fraction (LB2518-MEL) | cleaved PARP positive nuclei fraction (LOXIMVI) | cleaved PARP positive nuclei fraction (MEL-HO)
4 | CO[C@H]1C[C@@H]2CC[C@@H](C)[C@@](O)(O2)C(=O)C(=O)N2CCCC[C@H]2C(=O)O[C@H]([C@H](C)C[C@@H]2CC[C@@H](OCCO)[C@H](OC)C2)CC(=O)[C@H](C)/C=C(\C)[C@@H](O)[C@@H](OC)C(=O)[C@H](C)C[C@H](C)/C=C/C=C/C=C/1C [everolimus] + Nc1ncn([C@H]2C[C@H](O)[C@@H](CO)O2)c(=O)n1 [decitabine] (first compound 0.02 µM, partner dose 0.1 µM) | 232% | 98.4% | 82.5% | 477% | 135% | 124% | 124% | 92.2% | 108% | 38.9% | 180% | 140% | 113% | 185% | 101% | 326% | 66.5% | 118% | 693%
5 | C=C(c1ccc(C(=O)O)cc1)c1cc2c(cc1C)C(C)(C)CCC2(C)C [Bexarotene] + Cn1c(Nc2ccc(C(F)(F)F)cc2)nc2cc(Oc3ccnc(-c4ncc(C(F)(F)F)[nH]4)c3)ccc21 [CHIR265] (first compound 2 µM, partner dose 0.08 µM) | 164% | 132% | 98.3% | 64.6% | 82.4% | 73.7% | 105% | 283% | 190% | 47.2% | 199% | 22% | 70.3% | 133% | 120% | 48.2% | 68% | 54% | 92.2%
